± gives the standard deviation of the averaged measurements. Only a part is listed here, and it is no random draw.
Compound: Nc1ncnc2c1ncn2[C@@H]1O[C@H](COP(=O)(O)OP(=O)(O)NP(=O)(O)O)[C@@H](O)[C@H]1O [adenylyl imidodiphosphate]
Experiment: NP40-soluble protein abundance relative to vehicle (solubility fold change) (ratio); higher = more soluble protein in presence of AMP-PNP
Summary of the method: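 Across three independent experiments, values are fold changes against the detergent-processed vehicle for each replicate, based on vsn-normalised intensities. The samples were Jurkat crude lysate treated with eight concentrations (0.1 to 10 mM) for 10 min at room temperature and then 3 min at 37 °C. Lysate was solubilised with 0.8% NP40 and benzonase, ultracentrifuged, and the supernatant analysed by TMT-labelled LC-MS/MS.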

The chains behind the UniProt entries cited, without tags or fusion partners. Where a name states a change or a piece, a line headed by the entry shows the natural chain unless it says otherwise.
UniProt Q15459: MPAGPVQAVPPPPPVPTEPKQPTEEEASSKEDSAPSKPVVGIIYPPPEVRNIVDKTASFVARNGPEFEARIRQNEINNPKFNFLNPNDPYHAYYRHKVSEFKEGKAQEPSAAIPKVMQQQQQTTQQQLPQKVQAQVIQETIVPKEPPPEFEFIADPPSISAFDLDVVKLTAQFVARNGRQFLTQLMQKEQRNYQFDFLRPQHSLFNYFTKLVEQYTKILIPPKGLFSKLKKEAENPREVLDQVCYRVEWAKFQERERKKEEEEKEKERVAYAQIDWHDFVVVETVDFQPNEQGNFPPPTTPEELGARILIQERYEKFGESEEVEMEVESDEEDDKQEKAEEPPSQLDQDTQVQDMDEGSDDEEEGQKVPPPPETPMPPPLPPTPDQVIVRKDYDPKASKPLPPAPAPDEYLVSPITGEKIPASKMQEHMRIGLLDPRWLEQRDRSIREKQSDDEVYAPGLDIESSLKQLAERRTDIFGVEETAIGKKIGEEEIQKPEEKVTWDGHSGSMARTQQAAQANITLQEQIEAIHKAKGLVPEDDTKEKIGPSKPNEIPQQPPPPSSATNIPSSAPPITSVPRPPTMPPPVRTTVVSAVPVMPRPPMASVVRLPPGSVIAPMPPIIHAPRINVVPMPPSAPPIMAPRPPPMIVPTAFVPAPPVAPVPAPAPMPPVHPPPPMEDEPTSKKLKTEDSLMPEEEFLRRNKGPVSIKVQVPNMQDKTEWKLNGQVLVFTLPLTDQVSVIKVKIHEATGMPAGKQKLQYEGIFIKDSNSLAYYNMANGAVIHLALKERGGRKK
UniProt Q8IVH4: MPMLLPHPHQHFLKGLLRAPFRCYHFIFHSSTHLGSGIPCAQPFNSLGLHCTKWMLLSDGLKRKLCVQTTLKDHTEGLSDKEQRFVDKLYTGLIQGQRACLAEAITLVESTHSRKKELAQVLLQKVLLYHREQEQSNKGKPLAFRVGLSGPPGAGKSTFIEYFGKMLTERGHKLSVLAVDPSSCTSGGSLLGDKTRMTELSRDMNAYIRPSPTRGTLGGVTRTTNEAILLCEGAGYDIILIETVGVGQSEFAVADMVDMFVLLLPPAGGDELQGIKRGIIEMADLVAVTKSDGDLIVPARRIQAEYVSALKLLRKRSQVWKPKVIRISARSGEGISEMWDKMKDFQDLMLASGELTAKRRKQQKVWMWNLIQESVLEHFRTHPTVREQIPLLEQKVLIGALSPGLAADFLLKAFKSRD
UniProt Q15814: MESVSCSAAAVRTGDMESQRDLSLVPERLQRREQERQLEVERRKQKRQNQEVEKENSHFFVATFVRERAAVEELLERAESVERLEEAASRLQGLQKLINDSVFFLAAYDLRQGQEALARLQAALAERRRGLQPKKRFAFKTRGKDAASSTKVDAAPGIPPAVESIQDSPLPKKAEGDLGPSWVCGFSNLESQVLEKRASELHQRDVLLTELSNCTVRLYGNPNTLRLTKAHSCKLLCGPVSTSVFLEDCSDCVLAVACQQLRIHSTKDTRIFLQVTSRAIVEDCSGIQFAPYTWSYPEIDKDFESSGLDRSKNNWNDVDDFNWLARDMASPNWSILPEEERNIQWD
UniProt Q5T3I0: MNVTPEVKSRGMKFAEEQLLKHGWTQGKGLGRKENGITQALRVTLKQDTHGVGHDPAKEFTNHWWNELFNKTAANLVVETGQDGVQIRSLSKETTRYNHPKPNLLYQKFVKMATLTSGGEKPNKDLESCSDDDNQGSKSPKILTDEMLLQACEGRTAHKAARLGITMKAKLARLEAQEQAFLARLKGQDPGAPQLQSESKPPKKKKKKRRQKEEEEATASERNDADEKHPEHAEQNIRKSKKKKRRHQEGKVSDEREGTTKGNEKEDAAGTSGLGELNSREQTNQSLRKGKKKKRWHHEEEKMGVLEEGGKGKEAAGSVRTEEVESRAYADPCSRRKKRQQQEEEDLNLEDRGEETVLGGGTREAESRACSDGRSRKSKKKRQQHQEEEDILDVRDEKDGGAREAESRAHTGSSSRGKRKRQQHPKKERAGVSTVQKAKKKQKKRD
UniProt Q4LDG9: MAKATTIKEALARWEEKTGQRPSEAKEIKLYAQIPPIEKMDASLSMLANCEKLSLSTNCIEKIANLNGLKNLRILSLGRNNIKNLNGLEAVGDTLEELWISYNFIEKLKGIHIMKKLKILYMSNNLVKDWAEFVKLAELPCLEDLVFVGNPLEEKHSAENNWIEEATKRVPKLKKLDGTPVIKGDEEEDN
UniProt Q16659, whole entry: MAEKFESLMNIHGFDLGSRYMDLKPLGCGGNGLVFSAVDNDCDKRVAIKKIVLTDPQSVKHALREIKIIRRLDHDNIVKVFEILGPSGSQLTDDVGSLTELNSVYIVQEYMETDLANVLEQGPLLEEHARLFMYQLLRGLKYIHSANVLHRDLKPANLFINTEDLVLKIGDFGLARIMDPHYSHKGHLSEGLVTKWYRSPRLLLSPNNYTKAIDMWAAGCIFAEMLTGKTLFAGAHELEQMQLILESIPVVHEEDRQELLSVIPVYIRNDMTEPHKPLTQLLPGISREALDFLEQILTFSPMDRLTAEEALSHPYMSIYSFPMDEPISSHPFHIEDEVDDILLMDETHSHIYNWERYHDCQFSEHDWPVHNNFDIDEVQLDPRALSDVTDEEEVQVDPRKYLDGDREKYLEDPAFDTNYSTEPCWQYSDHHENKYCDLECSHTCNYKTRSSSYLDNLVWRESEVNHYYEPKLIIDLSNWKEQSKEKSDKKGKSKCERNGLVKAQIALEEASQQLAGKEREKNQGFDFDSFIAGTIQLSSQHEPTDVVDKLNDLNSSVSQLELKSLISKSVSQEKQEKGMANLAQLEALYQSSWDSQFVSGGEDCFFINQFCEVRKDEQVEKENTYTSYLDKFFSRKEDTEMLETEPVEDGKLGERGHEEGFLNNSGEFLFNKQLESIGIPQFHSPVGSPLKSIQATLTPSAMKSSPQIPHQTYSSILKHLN
UniProt Q5TKA1: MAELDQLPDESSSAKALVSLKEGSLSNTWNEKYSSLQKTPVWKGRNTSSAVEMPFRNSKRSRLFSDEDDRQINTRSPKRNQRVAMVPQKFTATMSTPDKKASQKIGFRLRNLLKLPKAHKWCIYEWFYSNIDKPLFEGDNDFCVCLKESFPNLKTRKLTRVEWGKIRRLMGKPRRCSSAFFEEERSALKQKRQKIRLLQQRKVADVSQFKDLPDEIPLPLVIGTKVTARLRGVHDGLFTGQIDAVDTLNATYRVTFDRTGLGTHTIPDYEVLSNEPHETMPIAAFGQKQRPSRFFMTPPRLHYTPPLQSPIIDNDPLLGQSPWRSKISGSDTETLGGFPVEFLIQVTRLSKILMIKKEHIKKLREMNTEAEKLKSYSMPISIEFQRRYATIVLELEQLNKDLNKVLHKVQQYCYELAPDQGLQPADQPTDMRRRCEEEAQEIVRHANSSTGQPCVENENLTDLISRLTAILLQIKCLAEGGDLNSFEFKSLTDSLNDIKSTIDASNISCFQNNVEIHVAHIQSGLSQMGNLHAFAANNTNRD

Target	NP40-soluble protein abundance (concentration: 1mM)	NP40-soluble protein abundance (concentration: 2mM)	NP40-soluble protein abundance (concentration: 4mM)	NP40-soluble protein abundance (concentration: 6mM)	NP40-soluble protein abundance (concentration: 8mM)	NP40-soluble protein abundance (concentration: 10mM)
SF3A1 (UniProt Q15459)	1.02 ± 0.022	1.05 ± 0.05	1.02 ± 0.014	1.07 ± 0.031	1.07 ± 0.017	1.09 ± 0.031
Q495G5 and related entries (UniProt Q8IVH4)	0.978 ± 0.028	0.96 ± 0.03	0.994 ± 0.032	1.05 ± 0.089	1.04 ± 0.073	1.05 ± 0.074
TBCC (UniProt Q15814)	0.984 ± 0.027	0.975 ± 0.022	1.03 ± 0.02	0.994 ± 0.022	1.01 ± 0.043	1.01 ± 0.045
UniProt Q5T3I0 and related entries	1.14 ± 0.029	1.2 ± 0.042	1.21 ± 0.042	1.21 ± 0.047	1.22 ± 0.024	1.3 ± 0.079
DNAL1 (UniProt Q4LDG9)	0.981 ± 0.029	1.05 ± 0.013	0.988 ± 0.078	0.943 ± 0.048	0.932 ± 0.029	0.913 ± 0.066
UniProt Q16659	0.997 ± 0.033	1.02 ± 0.053	0.981 ± 0.026	0.975 ± 0.027	0.9755 ± 0.0082	0.939 ± 0.021
UniProt Q4AE62 and related entries	0.99 ± 0.033	0.9546 ± 0.0082	0.966 ± 0.014	0.972 ± 0.0099	0.991 ± 0.01	0.9608 ± 0.0068
UniProt Q5TKA1 and related entries	0.9726 ± 0.0082	1.03 ± 0.015	1.02 ± 0.047	0.9854 ± 0.0069	0.979 ± 0.019	0.984 ± 0.039

Record cards, from the list above. Values in the order: NP40-soluble protein abundance (concentration: 1mM)	NP40-soluble protein abundance (concentration: 2mM)	NP40-soluble protein abundance (concentration: 4mM)	NP40-soluble protein abundance (concentration: 6mM)	NP40-soluble protein abundance (concentration: 8mM)	NP40-soluble protein abundance (concentration: 10mM)
UniProt Q4AE62 and related entries as listed: 0.99 ± 0.033	0.9546 ± 0.0082	0.966 ± 0.014	0.972 ± 0.0099	0.991 ± 0.01	0.9608 ± 0.0068
Q495G5 and related entries (UniProt Q8IVH4) as listed: 0.978 ± 0.028	0.96 ± 0.03	0.994 ± 0.032	1.05 ± 0.089	1.04 ± 0.073	1.05 ± 0.074

Reference: the supplement of paper PMC6411743
